Reference: PubChem BioAssay AID686938 (Drosophila RNAi Screening Center, 2013)
The screen tested about 23,000 reagents; shown is an unselected part of those with a known target gene and a result. Over the whole deposit, 75 (0.33%) were called active. 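Raw plate signals without normalisation; calls rest on plate z-scores that were not deposited; ratio present for only 364 wells.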 Reagent sequences are not shown. Not stated in the record: the dose of the treatment.

Screen: 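Knock-downs reducing store-operated calcium influx in Drosophila cells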 (primary screen)
Cell system: Drosophila S2R+ cells
Reagents: long dsRNA against Drosophila genes, about 0.25 µg dsRNA per well, roughly 10,000 cells
Duration: 5 days of knock-down before the calcium assay
Conditions: thapsigargin (SERCA pump blocker) to empty calcium stores; entry signal taken 4 min after adding it
Detection: 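Per-well fluo-4 fluorescence in two replicates, unnormalised, measured in resting cells and 4 min after store depletion by the SERCA blocker thapsigargin; ratio of the two present in few wells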
Reading the numbers: calcium entry signal: higher = stronger calcium signal after store depletion; entry to resting ratio: higher = more calcium entry relative to resting level; resting calcium signal: higher = higher resting calcium signal
Rule for the call: 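Called when the plate z-score of the entry-to-rest ratio, mean of duplicates, falls below −3; wells with low overall dye signal (Fmax z below −2) or more than five off-targets excluded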
Meaning of the calls: active = strongly reduced calcium entry; inactive = no strong reduction

Gene | dsRNA | calcium entry signal, replicate 1 (fluorescence units) | calcium entry signal, replicate 2 (fluorescence units) | entry to resting ratio | resting calcium signal, replicate 1 (fluorescence units) | resting calcium signal, replicate 2 (fluorescence units) | Outcome
CG6659 | DRSC20003 | 3.59e7 | 2.76e7 | – | 1.66e7 | 1.43e7 | inactive
DCTN2-p50 | DRSC07132 | 4.27e7 | 3.93e7 | – | 2.00e7 | 1.95e7 | inactive
Gbeta13F | DRSC20247 | 4.00e7 | 4.61e7 | – | 1.99e7 | 2.11e7 | inactive
CG10140 | DRSC09704 | 3.07e7 | 3.61e7 | – | 1.62e7 | 1.74e7 | inactive
Osi11 | DRSC12282 | 4.19e7 | 2.67e7 | – | 1.87e7 | 1.30e7 | inactive
Gfat2 | DRSC14598 | 3.53e7 | 4.64e7 | – | 1.53e7 | 1.95e7 | inactive
psh | DRSC19990 | 4.19e7 | 3.12e7 | – | 2.18e7 | 1.50e7 | inactive
Rbcn-3B | DRSC18574 | 4.26e7 | 6.47e7 | 1.4 | 2.97e7 | 4.05e7 | inactive
CG7798 | DRSC07047 | 4.62e7 | 4.01e7 | – | 1.87e7 | 1.85e7 | inactive
l(2)34Fc | DRSC01910 | 4.35e7 | 3.33e7 | – | 2.10e7 | 1.54e7 | inactive
CG13920 | DRSC08389 | 3.98e7 | 2.97e7 | – | 1.91e7 | 1.55e7 | inactive
Dhrs4 | DRSC09773 | 5.41e7 | 4.25e7 | – | 3.53e7 | 1.78e7 | inactive
Graf | DRSC20131 | 3.57e7 | 3.86e7 | – | 1.54e7 | 1.61e7 | inactive
CG11920 | DRSC14439 | 2.72e7 | 2.43e7 | – | 1.61e7 | 1.32e7 | inactive
CG32425 | DRSC11739 | 1.53e7 | 3.24e7 | – | 1.04e7 | 1.79e7 | inactive
CG32425 | DRSC11764 | 3.79e7 | 5.09e7 | – | 1.81e7 | 3.32e7 | inactive
twi | DRSC04720 | 4.49e7 | 5.19e7 | – | 2.39e7 | 2.79e7 | inactive
twi | DRSC23185 | 5.42e7 | 3.51e7 | – | 2.91e7 | 1.53e7 | inactive
Polr1H | DRSC14594 | 1.71e7 | 2.04e7 | – | 9.24e6 | 1.07e7 | inactive
CG10433 | DRSC04068 | 4.04e7 | – | – | 2.14e7 | – | inactive
EndoA | DRSC14775 | 1.93e7 | 2.20e7 | – | 9.78e6 | 8.90e6 | inactive
CG9795 | DRSC12336 | 4.14e7 | 5.03e7 | – | 1.92e7 | 3.39e7 | inactive
Pal2 | DRSC04507 | 3.63e7 | 4.53e7 | – | 1.78e7 | 2.01e7 | inactive
CG5910 | DRSC11786 | 2.30e7 | 4.00e7 | – | 1.11e7 | 1.58e7 | inactive
CG13840 | DRSC14690 | 5.23e7 | 3.79e7 | – | 2.40e7 | 1.62e7 | inactive
CG13840 | DRSC23279 | 5.86e7 | 3.70e7 | – | 2.96e7 | 1.56e7 | inactive
CG10345 | DRSC14138 | 4.11e7 | 3.06e7 | – | 2.01e7 | 1.51e7 | inactive
CadN2 | DRSC03062 | 4.86e7 | 3.70e7 | – | 2.14e7 | 1.70e7 | inactive
CadN2 | DRSC03063 | 4.38e7 | 3.84e7 | – | 2.05e7 | 1.86e7 | inactive
CadN2 | DRSC03064 | 4.86e7 | 3.53e7 | – | 2.07e7 | 1.74e7 | inactive
PH4alphaSG2 | DRSC15037 | 3.74e7 | 5.01e7 | – | 1.90e7 | 2.12e7 | inactive
byn | DRSC11332 | 3.11e7 | 4.51e7 | – | 1.54e7 | 1.88e7 | inactive
kuk | DRSC15730 | 4.33e7 | 3.69e7 | – | 2.04e7 | 1.75e7 | inactive
robls54B | DRSC05660 | 3.24e7 | 4.05e7 | – | 1.58e7 | 2.13e7 | inactive
CG15308 | DRSC17995 | 4.12e7 | 4.22e7 | – | 1.85e7 | 1.99e7 | inactive
ath | DRSC02788 | 3.59e7 | 4.93e7 | – | 1.66e7 | 2.15e7 | inactive
CG43133 | DRSC19231 | 3.46e7 | 4.01e7 | – | 1.66e7 | 1.97e7 | inactive
CG12990 | DRSC19510 | 2.72e7 | 3.33e7 | – | 1.43e7 | 1.40e7 | inactive
CG14562 | DRSC11723 | 3.37e7 | 5.61e7 | – | 1.52e7 | 2.48e7 | inactive
CG42327 | DRSC14936 | 3.61e7 | 3.49e7 | – | 1.85e7 | 1.73e7 | inactive
CG42327 | DRSC14937 | 3.65e7 | 4.02e7 | – | 1.76e7 | 1.83e7 | inactive
CG42327 | DRSC23337 | 3.62e7 | 3.76e7 | – | 1.72e7 | 1.65e7 | inactive
Dph4 | DRSC12318 | 4.49e7 | 3.19e7 | – | 2.13e7 | 1.45e7 | inactive
Ppt2 | DRSC02786 | 4.62e7 | – | – | 1.95e7 | – | inactive
Crtc | DRSC10578 | 3.45e7 | 4.22e7 | – | 1.88e7 | 2.00e7 | inactive
Crtc | DRSC23130 | 3.04e7 | 3.42e7 | – | 1.51e7 | 1.67e7 | inactive
CG32982 | DRSC01059 | 2.63e7 | 2.90e7 | – | 1.55e7 | 1.62e7 | inactive
CG32982 | DRSC02677 | 2.71e7 | 3.50e7 | – | 1.25e7 | 1.39e7 | inactive
CG32982 | DRSC03268 | 2.41e7 | 4.84e7 | – | 1.61e7 | 2.27e7 | inactive
CG32982 | DRSC03269 | 4.03e7 | 5.63e7 | – | 1.75e7 | 2.44e7 | inactive
CG32982 | DRSC21912 | 3.19e7 | 3.97e7 | – | 1.62e7 | 2.21e7 | inactive
CG30291 | DRSC03842 | 3.46e7 | 6.16e7 | – | 1.61e7 | 2.53e7 | inactive
CG11396 | DRSC11654 | 3.06e7 | 5.09e7 | – | 1.48e7 | 1.99e7 | inactive
Ublcp1 | DRSC14149 | 4.43e7 | 3.88e7 | – | 2.34e7 | 1.82e7 | inactive
CG14357 | DRSC14820 | 4.02e7 | 4.87e7 | – | 1.91e7 | 4.80e7 | inactive
Set2 | DRSC19765 | 4.26e7 | 4.04e7 | – | 1.83e7 | 1.76e7 | inactive
dj | DRSC12625 | 4.54e7 | 4.11e7 | – | 2.14e7 | 2.04e7 | inactive
alphaTub67C | DRSC11321 | 2.54e7 | 3.53e7 | – | 1.58e7 | 2.08e7 | inactive

In a second layout: entries from further up.
| Gene | dsRNA | calcium entry signal, replicate 1 (fluorescence units) | calcium entry signal, replicate 2 (fluorescence units) | entry to resting ratio | resting calcium signal, replicate 1 (fluorescence units) | resting calcium signal, replicate 2 (fluorescence units) | Outcome |
| --- | --- | --- | --- | --- | --- | --- | --- |
| CG32982 | DRSC21912 | 3.19e7 | 3.97e7 | – | 1.62e7 | 2.21e7 | inactive |
| CG30291 | DRSC03842 | 3.46e7 | 6.16e7 | – | 1.61e7 | 2.53e7 | inactive |
| CG11396 | DRSC11654 | 3.06e7 | 5.09e7 | – | 1.48e7 | 1.99e7 | inactive |
| Ublcp1 | DRSC14149 | 4.43e7 | 3.88e7 | – | 2.34e7 | 1.82e7 | inactive |
| CG14357 | DRSC14820 | 4.02e7 | 4.87e7 | – | 1.91e7 | 4.80e7 | inactive |
| Set2 | DRSC19765 | 4.26e7 | 4.04e7 | – | 1.83e7 | 1.76e7 | inactive |
| dj | DRSC12625 | 4.54e7 | 4.11e7 | – | 2.14e7 | 2.04e7 | inactive |
